Among all 300,000 compounds or so, about 5,400 (1.8%) were called active. The shares of active, inactive and inconclusive entries below differ from those in the screen. Calls follow the shape of the full dose curve; tested in HEK293 cells. Where the call is inconclusive, the potency comes from a doubtful curve fit.
Experiment: qHTS for inhibitors of binding or entry into cells for Marburg Virus
Details: Marburg virus pseudotyped entry inhibition, cell reporter; activity change, negative = inhibition: at 37.8 µM (top of the series) unless noted
% is scaled to controls: 0 for no effect and ±100 for the full control effect; potency is read from the fitted curve at half-maximal effect.

SMILES | Potency | activity change, negative = inhibition
C=CCN1C(=O)C2(OCCCO2)c2c(C)ccc(C)c21 | inconclusive: 35.5 µM [inhibitor, single point] | 
CCOC(=O)c1c(C)[nH]c(C(=O)CSc2nnc(Nc3ccccc3F)s2)c1C | inconclusive: 3.55 µM [activator, single point] | 
COc1ccc(CNS(=O)(=O)c2ccc(Br)s2)cc1 | inconclusive: 6.31 µM [inhibitor, single point] | 
Cc1onc(-c2ccccc2)c1C(=O)NC(=S)Nc1sc2c(c1C#N)CCC(C)C2 (stereo not given) | inconclusive: 0.562 µM [activator, full curve, poor fit] | 
Cc1ccc(NS(=O)(=O)c2cc(C(=O)NCc3ccncc3)ccc2C)cc1 | inconclusive: 0.282 µM [inhibitor, full curve, poor fit] | 
CCCNS(=O)(=O)c1cccc(C(=O)NNC(=O)c2cc(C)oc2C)c1 | inconclusive: 6.31 µM [activator, single point] | 
CCN(CC)CCNC(=O)c1ccc(NC(=O)c2ccc(S(=O)(=O)N(C)c3ccccc3OC)cc2)cc1 | inconclusive: 35.5 µM [inhibitor, single point] | 
Nc1cccc2c1C(=O)N(C(=O)/C=C/c1ccc(F)cc1)C2=O | active: 3.16 µM | 
CCC(NS(=O)(=O)c1ccc(C)cc1)C(=O)N1CCC2(O)CCCCC2C1 (stereo not given) |  | inactive: 40.2%
Cn1c(=O)c2c(ncn2CC(=O)OCC(=O)NC(c2ccccc2)c2ccccc2)n(C)c1=O | inconclusive: 0.447 µM [inhibitor, partial curve, poor fit] | 
Cc1ccc(/C=C/C(=O)O)cc1S(=O)(=O)NCc1ccco1 |  | inactive: 0.546% [at 46.1 µM]
CCCn1nc(NC(=O)c2cccs2)c2cc3ccccc3nc21 | inconclusive: 16.4 µM [inhibitor, partial curve, poor fit] | 
N#Cc1c(NC(=O)C2CCCO2)sc2c1CCCCC2 (stereo not given) | inconclusive: 1.26 µM [activator, partial curve, poor fit] | 
Nc1ccc(-c2nc3nc(N)nc(N)c3nc2-c2ccc(N)cc2)cc1 | inconclusive: 6.31 µM [inhibitor, partial curve, poor fit] | 
CC1(C)CC(=O)C2=C(C1)NC1=C(C(=O)c3ccccc31)C2c1ccc(O)cc1 (stereo not given) | inconclusive: 8.2 µM [inhibitor, partial curve, poor fit] | 
O=c1oc(-c2cccs2)nc2sc3c(c12)CCCCC3 | inconclusive: 20.6 µM [inhibitor, single point] | 
CC(C)NC(=O)C(OC(=O)c1ccccc1)C(OC(=O)c1ccccc1)C(=O)O (stereo not given) |  | inactive: 4.51%
NC(=O)c1ccccc1NC(=O)/C=C/c1ccccc1 | inconclusive: 11.2 µM [inhibitor, single point] | 
CCN(CC)CCNC(=O)c1ccc(NS(C)(=O)=O)cc1 |  | inactive: 12.3%
CCCNC(=O)/C(=C/c1cn(S(=O)(=O)N(C)C)c2ccccc12)NC(=O)c1ccc(OC)cc1 | inconclusive: 1 µM [inhibitor, partial curve, poor fit] | 
Fc1ccc(COc2ccc(Br)cc2CNCC2CCCO2)cc1 (stereo not given) | active: 3.98 µM | 
CCOC(=O)/C(=N\Nc1ccccc1)N1CC1 |  | inactive: -1.49% [at 46.1 µM]
CC(=O)c1c(C)[nH]c(C(=O)OCC(=O)Nc2ccc3[nH]c(=O)[nH]c3c2)c1C |  | inactive: 2.06% [at 46.1 µM]

A draw from above in order of count of non-hydrogen atoms, falling:
SMILES | Potency | activity change, negative = inhibition
CCN(CC)CCNC(=O)c1ccc(NC(=O)c2ccc(S(=O)(=O)N(C)c3ccccc3OC)cc2)cc1 | inconclusive: 35.5 µM [inhibitor, single point] | 
CCN(CC)CCNC(=O)c1ccc(NS(C)(=O)=O)cc1 |  | inactive: 12.3%
NC(=O)c1ccccc1NC(=O)/C=C/c1ccccc1 | inconclusive: 11.2 µM [inhibitor, single point] | 

Next structures

SMILES | Potency | activity change, negative = inhibition
CCOC(=O)C1CCN(c2c(NCc3ccc(C(=O)NCCOC)cc3)c(=O)c2=O)CC1 | inconclusive: 2.24 µM [activator, partial curve, poor fit] | 
CCOC(=O)c1c(C)n(Cc2ccco2)c2ccc(O)cc12 | inconclusive: 2.24 µM [inhibitor, full curve, poor fit] | 
CC(Oc1ccc2ccccc2c1)C(=O)N/N=C/c1cccnc1 (stereo not given) | inconclusive: 14.1 µM [inhibitor, single point] | 
COc1cc(NC(=O)CSc2nc3[nH]ncc3c(=O)n2-c2ccccc2C)cc(OC)c1OC | inactive | 
O=c1cc(CSc2nc3ccccc3c(=O)[nH]2)c2ccc(O)cc2o1 | inconclusive: 25.1 µM [inhibitor, single point] | 
COc1ccc(NC(=S)Nc2cccc(C(C)=O)c2)cc1OC |  | inactive: 32.9% [at 14.2 µM]
CCOC(=O)C(C)Sc1ncnc2nc[nH]c12 (stereo not given) |  | inactive: -9.49%
COc1ccc(Cn2nnnc2C(c2ccc(C)cc2)N2CCN(C3CCCC3)CC2)cc1 (stereo not given) | inconclusive: 7.94 µM [inhibitor, partial curve, poor fit] | 
CC(CCc1ccccc1)NC(=O)C(=O)NCc1ccccc1 (stereo not given) | inconclusive: 1.41 µM [activator, partial curve] | 
O=C(c1ccc2c3c(cccc13)CC2)C1CCCN(Cc2ccccn2)C1 (stereo not given) | inconclusive: 28.2 µM [inhibitor, single point] | 
O=C(NCc1cccc(F)c1)c1ccc2nc(N3CCCCC3)sc2c1 |  | inactive: 6.06% [at 46.1 µM]
CC(C)[C@H]1C(C#N)=C(N)Oc2n[nH]c(C(C)(C)C)c21 |  | inactive: -9.54%
Cn1c(O)c(C2=c3ccccc3=NC2=O)[nH]c1=S | inconclusive: 31.6 µM [activator, single point] | 
CS(=O)(=O)N1CCN(C(=O)c2ccc(Cl)s2)CC1 | inconclusive: 5.62 µM [activator, single point] | 
O=c1nc(SCc2c(F)cccc2Cl)nc(-c2ccccc2)[nH]1 |  | inactive: 0.915% [at 46.1 µM]
COc1ccc(CCNC/C=C/c2ccccc2)cc1 | inconclusive: 25.1 µM [inhibitor, single point] | 
Cn1ccc2c(N3CCC3)cc3c(c21)C1CCC3O1 (stereo not given) | inconclusive: 1.77 µM [inhibitor, full curve] | 
Cc1ccc(C(c2c(C)nn(-c3ccccc3)c2N)c2c(C)nn(-c3ccccc3)c2N)cc1 | inconclusive: 0.316 µM [inhibitor, full curve] | 
Cc1ccc(C(=O)NNC(=O)c2ccccc2O)cc1S(=O)(=O)N1CCCCC1 |  | inactive: -16%
CCSc1ncc(Cl)c(C(=O)N(Cc2ccccc2)Cc2ccco2)n1 |  | inactive: 1.71% [at 46.1 µM]
CS(=O)(=O)Nc1ccc(C2=NN(S(C)(=O)=O)C(c3cccs3)C2)cc1 (stereo not given) |  | inactive: 15.1%
N#Cc1nc(-c2ccc(F)cc2)oc1N1CCCC1 | inconclusive: 0.251 µM [activator, full curve, poor fit] | 
